Test results taken from the supplement of paper PMC12009310.
Structures can show the parent of a compound that is named as a salt. ± gives the standard deviation of the averaged measurements. The list shows a part of the results. Part of the spread comes from offsets between plates or batches.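 The cells are a mouse kidney inner medullary collecting duct line, silenced either for the ciliary gene Rpgrip1l or with a non-targeting control siRNA.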

These compounds were tested on mIMCD3 (assay: robust z score of cilia incidence (% cells with single cilium) vs plate controls; higher = more ciliated cells). Settings: 10 µM; 48 h; siRNA: siScr.

Q: For `CCC1=C(C)CN(C(=O)NCCc2ccc(S(=O)(=O)NC(=O)N[C@H]3CC[C@H](C)CC3)cc2)C1=O` [Glimepiride], which “robust z score of cilia incidence” value is on record?
A: -13.8 ± 22

Q: `CCCn1c(=O)[nH]c2nc(-c3ccc(S(=O)(=O)O)cc3)[nH]c2c1=O` was tested. Which “robust z score of cilia incidence” value did it give?
A: 1.06 ± 2.4

Q: For `O=C1CCc2cc(OCCCCc3nnnn3C3CCCCC3)ccc2N1` [Cilostazol], which “robust z score of cilia incidence” value is on record?
A: -22.2 ± 24

Q: For `CN(C)C(=O)n1nnnc1Cc1ccc(-c2ccccc2)cc1`, which “robust z score of cilia incidence” value is on record?
A: -49.6 ± 38

Q: Which “robust z score of cilia incidence” value does the source give for `C=C1C(=O)O[C@H]2[C@H]1CC/C(C)=C/CC[C@@]1(C)O[C@@H]21` [Parthenolide] here?
A: 2.26 ± 0.27

Q: With `COc1ccccc1N1CCN(CCCCNC(=O)c2ccc(-c3ccc(C(C)=O)cc3)cc2)CC1` as the compound, how does the “robust z score of cilia incidence” value read?
A: -3.98 ± 1.3

Q: With `CCN(CC)CCCCNc1ncc2cc(-c3c(Cl)cccc3Cl)c(NC(=O)NC(C)(C)C)nc2n1` as the compound, how does the “robust z score of cilia incidence” value read?
A: -69.5 ± 24

Q: For `COc1ccc(/C=C/C(=O)Nc2ccccc2C(=O)O)cc1OC` [Tranilast], which “robust z score of cilia incidence” value is on record?
A: 0.267 ± 1.2

Q: `Cc1nc2sccn2c(=O)c1CCN1CCC(=C(c2ccccc2)c2ccc(F)cc2)CC1` was tested. Which “robust z score of cilia incidence” value did it give?
A: -30.7 ± 13

Q: For `CCN(CC)CCCC(C)Nc1nc(C)cc(Nc2ccc3nc(C)cc(N)c3c2)n1` (configuration not stated), which “robust z score of cilia incidence” value is on record?
A: -2.22 ± 0.28

Q: With `CC1CCN(CCCC(=O)c2ccc(F)cc2)CC1` [Melperone hydrochloride] as the compound, how does the “robust z score of cilia incidence” value read?
A: -6.41 ± 0.46

Q: `Fc1ccc(Cl)cc1-c1nc(Nc2ccncc2)c2nccnc2n1` was tested. Which “robust z score of cilia incidence” value did it give?
A: -3.56 ± 7.4

Q: How did the “robust z score of cilia incidence” value turn out when `OC(c1ccccc1)C1CCN(CCc2ccccc2)CC1` (configuration not stated) was run?
A: -20.4 ± 1.6

Q: `O=C1CN(/N=C/c2ccc(-c3ccc([N+](=O)[O-])cc3)o2)C(=O)N1` [Dantrolene, sodium salt] was tested. Which “robust z score of cilia incidence” value did it give?
A: 1.89 ± 1

Q: For `CNC(=O)[C@H]1O[C@@H](n2cnc3c(NCc4cccc(I)c4)ncnc32)[C@H](O)[C@@H]1O`, which “robust z score of cilia incidence” value is on record?
A: 0.442 ± 0.041

Q: Which “robust z score of cilia incidence” value does the source give for `N#C/C(=C\c1ccc(O)c(O)c1)C(=O)NCCCCc1ccccc1` here?
A: -18.9 ± 14

Q: `O=C(c1ccc(F)cc1)C1CCN(CCn2c(=S)[nH]c3ccccc3c2=O)CC1` [Altanserin hydrochloride] was tested. Which “robust z score of cilia incidence” value did it give?
A: -67 ± 55

Q: How did the “robust z score of cilia incidence” value turn out when `CC(C)NC[C@H](O)COc1ccc(CC(N)=O)cc1` [S-(-)-Atenolol] was run?
A: 0.908 ± 3.9

Q: For `CC[C@]1(O)C[C@@H]2CN(CCc3c([nH]c4ccccc34)[C@@](C(=O)OC)(c3cc4c(cc3OC)N(C)[C@H]3[C@@](O)(C(=O)OC)[C@H](OC(C)=O)[C@]5(CC)C=CCN6CC[C@]43[C@@H]65)C2)C1` [Vinblastine sulfate], which “robust z score of cilia incidence” value is on record?
A: 2.62 ± 2.4

Q: Which “robust z score of cilia incidence” value does the source give for `CCC(NC(C)C)C(O)c1ccc(O)c2[nH]c(=O)ccc12` (configuration not stated) [Procaterol hydrochloride] here?
A: -0.371 ± 0.72

Q: For `O=C(NCCCCN1CCN(c2cccc(Cl)c2Cl)CC1)c1ccc2c(c1)Cc1ccccc1-2`, which “robust z score of cilia incidence” value is on record?
A: -21.7 ± 8.9

Q: With `O=C(NCCCCCCNC(=O)ON=C1CCCCC1)ON=C1CCCCC1` as the compound, how does the “robust z score of cilia incidence” value read?
A: -9.68 ± 6.3

Q: How did the “robust z score of cilia incidence” value turn out when `O=c1ncccn1[C@@H]1O[C@H](CO)[C@@H](O)[C@H]1O` [Zebularine] was run?
A: -0.578 ± 1.5

Each compound was assayed on mIMCD3 (assay: robust z score of cilia incidence (% cells with single cilium) vs plate controls; higher = more ciliated cells (rescue of cilia loss)). Settings: 10 µM; 48 h; siRNA: siRpgrip1l.

Q: `O=C1CCC(N2C(=O)c3ccccc3C2=O)C(=O)N1` (configuration not stated) [Thalidomide] was tested. Which “robust z score of cilia incidence” value did it give?
A: -8.27 ± 2.2

Q: For `NC(C(=O)O)c1cc(O)cc(O)c1` (racemic), which “robust z score of cilia incidence” value is on record?
A: -8.08 ± 5.6

Q: For `Oc1cc2c(cc1O)C(c1ccccc1)CNCC2` (configuration not stated), which “robust z score of cilia incidence” value is on record?
A: -8.22 ± 0.15

Q: With `CCCCCCCCCCCCCCCCn1cc[n+](Cc2ccccc2)c1C` as the compound, how does the “robust z score of cilia incidence” value read?
A: -25.9 ± 6.3

Q: How did the “robust z score of cilia incidence” value turn out when `Nc1c(Br)cc(Br)cc1CN[C@H]1CC[C@H](O)CC1` [Ambroxol hydrochloride] was run?
A: -18.4 ± 12

Q: How did the “robust z score of cilia incidence” value turn out when `O=C1C(Cl)=C(NCCN2CCOCC2)C(=O)c2ncccc21` was run?
A: -93.7 ± 86

Q: With `CCCC[P+](CCCC)(CCCC)Cc1ccc(NC(=O)C(Cc2ccc3ccccc3c2)NC(=NC2CCCCC2)NC2CCCCC2)cc1` (configuration not stated) as the compound, how does the “robust z score of cilia incidence” value read?
A: -16.2 ± 14

Q: With `Cc1ccc([N+](=O)[O-])cc1S(=O)(=O)N(C)C` as the compound, how does the “robust z score of cilia incidence” value read?
A: -10.4 ± 4.1

Q: How did the “robust z score of cilia incidence” value turn out when `COC(=O)c1c(C)[nH]c(C)c1C(=O)c1ccccc1Cc1ccccc1` was run?
A: -12.1 ± 0.26

Q: `CC(C)N(CCC(=O)c1ccc2ccccc2c1)Cc1ccccc1` was tested. Which “robust z score of cilia incidence” value did it give?
A: -24.2 ± 9.9

Q: `CCCCn1c(=O)c2[nH]c(C34CC5CC(CC3C5)C4)nc2n(CCCO)c1=O` was tested. Which “robust z score of cilia incidence” value did it give?
A: -46 ± 19

Q: How did the “robust z score of cilia incidence” value turn out when `CCN(CC)CC1CCCCN1CC(=O)N1c2ccccc2C(=O)Nc2cccnc21` (configuration not stated) was run?
A: -18.4 ± 1.2

Q: `NC(=O)N1C(=O)/C(=C(\O)c2cccs2)c2cc(Cl)ccc21` [Tenidap] was tested. Which “robust z score of cilia incidence” value did it give?
A: -19.4 ± 7.2

Q: `CCCn1c(=O)c2[nH]c(-c3ccccc3)nc2n(CCC)c1=O` [1,3-Dipropyl-8-phenylxanthine] was tested. Which “robust z score of cilia incidence” value did it give?
A: -9.17 ± 5.3

Q: For `COc1ccccc1OCCNCC(O)COc1cccc2[nH]c3ccccc3c12` (configuration not stated) [Carvedilol], which “robust z score of cilia incidence” value is on record?
A: -22.5 ± 15

Q: How did the “robust z score of cilia incidence” value turn out when `COc1cc2c(Nc3ccc(NC(=O)c4ccccc4)cc3)ncnc2cc1OCCCN1CCOCC1` was run?
A: -34.5 ± 17

Q: With `CCC1=C(C)CN(C(=O)NCCc2ccc(S(=O)(=O)NC(=O)N[C@H]3CC[C@H](C)CC3)cc2)C1=O` [Glimepiride] as the compound, how does the “robust z score of cilia incidence” value read?
A: -7.78 ± 7.4

Q: How did the “robust z score of cilia incidence” value turn out when `CCCn1c(=O)[nH]c2nc(-c3ccc(S(=O)(=O)O)cc3)[nH]c2c1=O` was run?
A: -13.6 ± 2.6

Q: How did the “robust z score of cilia incidence” value turn out when `O=C1CCc2cc(OCCCCc3nnnn3C3CCCCC3)ccc2N1` [Cilostazol] was run?
A: -32.7 ± 12

Q: Which “robust z score of cilia incidence” value does the source give for `CN(C)C(=O)n1nnnc1Cc1ccc(-c2ccccc2)cc1` here?
A: -34.3 ± 19

Q: How did the “robust z score of cilia incidence” value turn out when `C=C1C(=O)O[C@H]2[C@H]1CC/C(C)=C/CC[C@@]1(C)O[C@@H]21` [Parthenolide] was run?
A: -8.14 ± 1.4

Q: Which “robust z score of cilia incidence” value does the source give for `COc1ccccc1N1CCN(CCCCNC(=O)c2ccc(-c3ccc(C(C)=O)cc3)cc2)CC1` here?
A: -28.4 ± 1.9

Q: How did the “robust z score of cilia incidence” value turn out when `CCN(CC)CCCCNc1ncc2cc(-c3c(Cl)cccc3Cl)c(NC(=O)NC(C)(C)C)nc2n1` was run?
A: -41.7 ± 1.2

Q: For `COc1ccc(/C=C/C(=O)Nc2ccccc2C(=O)O)cc1OC` [Tranilast], which “robust z score of cilia incidence” value is on record?
A: -22.79 ± 0.076

Q: For `Cc1nc2sccn2c(=O)c1CCN1CCC(=C(c2ccccc2)c2ccc(F)cc2)CC1`, which “robust z score of cilia incidence” value is on record?
A: -50.8 ± 17

Q: How did the “robust z score of cilia incidence” value turn out when `CCN(CC)CCCC(C)Nc1nc(C)cc(Nc2ccc3nc(C)cc(N)c3c2)n1` (configuration not stated) was run?
A: -8.76 ± 9.3

Q: For `CC1CCN(CCCC(=O)c2ccc(F)cc2)CC1` [Melperone hydrochloride], which “robust z score of cilia incidence” value is on record?
A: -19.3 ± 4.4

Q: Which “robust z score of cilia incidence” value does the source give for `Fc1ccc(Cl)cc1-c1nc(Nc2ccncc2)c2nccnc2n1` here?
A: -6.15 ± 4

Q: For `OC(c1ccccc1)C1CCN(CCc2ccccc2)CC1` (configuration not stated), which “robust z score of cilia incidence” value is on record?
A: -18.9 ± 7.8

Q: `O=C1CN(/N=C/c2ccc(-c3ccc([N+](=O)[O-])cc3)o2)C(=O)N1` [Dantrolene, sodium salt] was tested. Which “robust z score of cilia incidence” value did it give?
A: -10.5 ± 0.92

Q: Which “robust z score of cilia incidence” value does the source give for `CNC(=O)[C@H]1O[C@@H](n2cnc3c(NCc4cccc(I)c4)ncnc32)[C@H](O)[C@@H]1O` here?
A: -19.5 ± 3.6

Q: `N#C/C(=C\c1ccc(O)c(O)c1)C(=O)NCCCCc1ccccc1` was tested. Which “robust z score of cilia incidence” value did it give?
A: -26.8 ± 20

Q: For `O=C(c1ccc(F)cc1)C1CCN(CCn2c(=S)[nH]c3ccccc3c2=O)CC1` [Altanserin hydrochloride], which “robust z score of cilia incidence” value is on record?
A: -77 ± 58

Q: Which “robust z score of cilia incidence” value does the source give for `CC(C)NC[C@H](O)COc1ccc(CC(N)=O)cc1` [S-(-)-Atenolol] here?
A: -5.61 ± 2.6

Q: How did the “robust z score of cilia incidence” value turn out when `CC[C@]1(O)C[C@@H]2CN(CCc3c([nH]c4ccccc34)[C@@](C(=O)OC)(c3cc4c(cc3OC)N(C)[C@H]3[C@@](O)(C(=O)OC)[C@H](OC(C)=O)[C@]5(CC)C=CCN6CC[C@]43[C@@H]65)C2)C1` [Vinblastine sulfate] was run?
A: -7.82 ± 2.4

Q: With `CCC(NC(C)C)C(O)c1ccc(O)c2[nH]c(=O)ccc12` (configuration not stated) [Procaterol hydrochloride] as the compound, how does the “robust z score of cilia incidence” value read?
A: -15 ± 0.78

Q: How did the “robust z score of cilia incidence” value turn out when `O=C(NCCCCN1CCN(c2cccc(Cl)c2Cl)CC1)c1ccc2c(c1)Cc1ccccc1-2` was run?
A: -31.4 ± 3.2

Q: For `O=C(NCCCCCCNC(=O)ON=C1CCCCC1)ON=C1CCCCC1`, which “robust z score of cilia incidence” value is on record?
A: -36.5 ± 22

Q: Which “robust z score of cilia incidence” value does the source give for `O=c1ncccn1[C@@H]1O[C@H](CO)[C@@H](O)[C@H]1O` [Zebularine] here?
A: -12.9 ± 9.6
